The results in this text go back to the supplement of paper PMC7666118.

By UniProt entry, the sequences of proteins in these tests, tags left out. Where a name states a change or a piece, a line headed by the entry shows the natural chain unless it says otherwise.
UniProt P29558: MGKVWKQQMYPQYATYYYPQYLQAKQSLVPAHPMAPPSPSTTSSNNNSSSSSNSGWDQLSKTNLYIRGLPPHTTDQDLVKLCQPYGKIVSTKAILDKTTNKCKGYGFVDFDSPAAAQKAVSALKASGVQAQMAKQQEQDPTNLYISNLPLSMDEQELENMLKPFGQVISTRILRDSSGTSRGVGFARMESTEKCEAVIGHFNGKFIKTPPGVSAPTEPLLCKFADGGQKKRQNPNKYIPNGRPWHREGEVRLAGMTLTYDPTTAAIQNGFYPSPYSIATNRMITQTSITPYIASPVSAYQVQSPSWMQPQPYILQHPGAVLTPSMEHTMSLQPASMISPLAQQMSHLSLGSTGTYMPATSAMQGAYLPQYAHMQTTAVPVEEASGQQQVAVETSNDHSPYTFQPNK
UniProt Q8TB72: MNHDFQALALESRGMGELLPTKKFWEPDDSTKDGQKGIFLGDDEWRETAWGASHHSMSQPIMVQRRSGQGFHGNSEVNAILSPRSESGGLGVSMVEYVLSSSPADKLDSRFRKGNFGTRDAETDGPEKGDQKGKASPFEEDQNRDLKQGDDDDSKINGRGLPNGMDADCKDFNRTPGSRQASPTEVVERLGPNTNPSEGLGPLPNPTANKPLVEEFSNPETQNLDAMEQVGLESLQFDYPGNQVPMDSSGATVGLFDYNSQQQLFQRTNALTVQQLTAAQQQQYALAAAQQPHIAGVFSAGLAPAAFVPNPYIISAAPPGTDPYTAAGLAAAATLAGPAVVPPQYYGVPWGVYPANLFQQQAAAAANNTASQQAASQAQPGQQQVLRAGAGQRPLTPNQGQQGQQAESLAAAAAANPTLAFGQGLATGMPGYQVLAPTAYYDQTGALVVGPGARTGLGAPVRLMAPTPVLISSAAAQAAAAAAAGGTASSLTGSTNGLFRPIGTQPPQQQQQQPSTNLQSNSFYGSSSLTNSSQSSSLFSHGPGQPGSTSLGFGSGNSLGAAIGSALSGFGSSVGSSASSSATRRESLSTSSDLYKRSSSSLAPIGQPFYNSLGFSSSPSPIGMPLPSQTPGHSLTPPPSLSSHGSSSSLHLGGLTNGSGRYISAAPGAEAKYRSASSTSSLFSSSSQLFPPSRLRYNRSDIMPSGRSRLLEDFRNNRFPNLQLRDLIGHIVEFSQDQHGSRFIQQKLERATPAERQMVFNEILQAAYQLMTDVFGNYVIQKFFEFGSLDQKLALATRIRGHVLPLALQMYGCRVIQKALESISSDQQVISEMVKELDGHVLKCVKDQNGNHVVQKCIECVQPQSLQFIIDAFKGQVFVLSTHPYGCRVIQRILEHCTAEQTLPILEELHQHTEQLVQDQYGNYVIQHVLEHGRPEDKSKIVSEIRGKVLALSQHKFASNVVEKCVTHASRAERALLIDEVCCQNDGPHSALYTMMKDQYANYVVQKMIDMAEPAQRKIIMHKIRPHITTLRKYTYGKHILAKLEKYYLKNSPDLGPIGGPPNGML
UniProt P61106, whole entry, looked up: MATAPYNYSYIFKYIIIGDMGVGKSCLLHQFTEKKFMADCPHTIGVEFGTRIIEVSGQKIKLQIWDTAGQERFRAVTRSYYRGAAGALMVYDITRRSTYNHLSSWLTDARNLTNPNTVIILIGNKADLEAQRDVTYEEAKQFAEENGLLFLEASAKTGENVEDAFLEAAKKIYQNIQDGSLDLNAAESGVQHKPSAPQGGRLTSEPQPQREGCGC
UniProt P61224: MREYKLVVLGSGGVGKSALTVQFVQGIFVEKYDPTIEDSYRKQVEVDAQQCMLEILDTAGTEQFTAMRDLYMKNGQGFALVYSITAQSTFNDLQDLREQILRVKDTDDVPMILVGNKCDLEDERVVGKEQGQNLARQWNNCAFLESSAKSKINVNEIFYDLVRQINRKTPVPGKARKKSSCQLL
UniProt P49721: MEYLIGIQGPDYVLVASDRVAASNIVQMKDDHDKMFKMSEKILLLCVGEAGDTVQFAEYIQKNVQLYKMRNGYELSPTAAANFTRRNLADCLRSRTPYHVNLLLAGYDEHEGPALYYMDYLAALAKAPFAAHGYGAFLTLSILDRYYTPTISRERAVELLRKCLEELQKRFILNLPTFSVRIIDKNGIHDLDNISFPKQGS
UniProt Q14997: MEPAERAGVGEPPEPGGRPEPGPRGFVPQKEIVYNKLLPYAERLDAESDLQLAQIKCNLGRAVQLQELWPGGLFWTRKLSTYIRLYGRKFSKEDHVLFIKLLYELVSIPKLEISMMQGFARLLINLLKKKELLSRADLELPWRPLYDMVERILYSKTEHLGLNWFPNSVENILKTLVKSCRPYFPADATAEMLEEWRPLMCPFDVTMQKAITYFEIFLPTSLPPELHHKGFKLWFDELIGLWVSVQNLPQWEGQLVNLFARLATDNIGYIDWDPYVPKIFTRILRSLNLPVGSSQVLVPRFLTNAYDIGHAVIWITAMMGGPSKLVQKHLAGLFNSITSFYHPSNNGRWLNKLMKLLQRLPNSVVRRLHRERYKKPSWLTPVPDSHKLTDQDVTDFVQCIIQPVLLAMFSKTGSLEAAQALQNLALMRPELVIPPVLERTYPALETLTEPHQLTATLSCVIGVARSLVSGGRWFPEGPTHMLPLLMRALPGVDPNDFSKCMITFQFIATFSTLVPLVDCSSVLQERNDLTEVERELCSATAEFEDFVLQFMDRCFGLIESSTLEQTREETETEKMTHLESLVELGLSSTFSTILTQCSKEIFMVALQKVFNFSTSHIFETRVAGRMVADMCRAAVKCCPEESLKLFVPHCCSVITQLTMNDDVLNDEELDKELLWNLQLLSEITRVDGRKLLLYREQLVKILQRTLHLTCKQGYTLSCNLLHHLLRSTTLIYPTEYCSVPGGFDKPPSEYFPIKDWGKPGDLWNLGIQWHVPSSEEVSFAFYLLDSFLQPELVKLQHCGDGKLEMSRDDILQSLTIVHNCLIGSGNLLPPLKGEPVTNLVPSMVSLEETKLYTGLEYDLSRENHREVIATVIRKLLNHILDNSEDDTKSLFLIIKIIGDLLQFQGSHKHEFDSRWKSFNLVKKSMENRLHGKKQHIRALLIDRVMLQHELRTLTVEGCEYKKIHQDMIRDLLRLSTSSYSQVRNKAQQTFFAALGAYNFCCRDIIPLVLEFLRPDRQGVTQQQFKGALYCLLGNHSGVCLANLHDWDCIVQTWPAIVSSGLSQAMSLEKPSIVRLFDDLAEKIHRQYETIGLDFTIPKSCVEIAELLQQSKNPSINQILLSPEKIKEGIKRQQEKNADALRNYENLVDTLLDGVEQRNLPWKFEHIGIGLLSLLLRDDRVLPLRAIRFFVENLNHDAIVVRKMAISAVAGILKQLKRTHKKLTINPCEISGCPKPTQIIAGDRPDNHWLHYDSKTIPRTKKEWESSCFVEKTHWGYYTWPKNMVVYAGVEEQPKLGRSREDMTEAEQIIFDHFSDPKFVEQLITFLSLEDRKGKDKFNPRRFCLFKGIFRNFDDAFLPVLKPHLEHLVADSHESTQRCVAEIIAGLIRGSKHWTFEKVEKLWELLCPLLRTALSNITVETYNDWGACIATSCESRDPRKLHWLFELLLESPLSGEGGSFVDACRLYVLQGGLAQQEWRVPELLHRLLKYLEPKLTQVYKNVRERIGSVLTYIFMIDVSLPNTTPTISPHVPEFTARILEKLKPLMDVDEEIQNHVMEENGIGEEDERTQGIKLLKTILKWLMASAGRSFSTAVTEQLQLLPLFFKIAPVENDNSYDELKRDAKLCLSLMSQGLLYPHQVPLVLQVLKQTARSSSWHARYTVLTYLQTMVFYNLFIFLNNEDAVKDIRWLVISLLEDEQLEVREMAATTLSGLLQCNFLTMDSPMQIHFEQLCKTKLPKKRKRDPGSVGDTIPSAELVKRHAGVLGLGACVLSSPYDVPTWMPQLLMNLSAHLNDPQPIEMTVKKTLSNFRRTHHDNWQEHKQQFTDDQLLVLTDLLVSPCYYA
UniProt P61289: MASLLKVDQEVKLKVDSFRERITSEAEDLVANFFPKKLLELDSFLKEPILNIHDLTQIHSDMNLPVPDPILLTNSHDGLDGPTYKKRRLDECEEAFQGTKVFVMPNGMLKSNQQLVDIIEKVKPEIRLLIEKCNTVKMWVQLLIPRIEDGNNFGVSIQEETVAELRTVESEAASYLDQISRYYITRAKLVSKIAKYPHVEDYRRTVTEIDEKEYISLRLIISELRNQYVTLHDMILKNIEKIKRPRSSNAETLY
UniProt Q6JBY9, whole entry: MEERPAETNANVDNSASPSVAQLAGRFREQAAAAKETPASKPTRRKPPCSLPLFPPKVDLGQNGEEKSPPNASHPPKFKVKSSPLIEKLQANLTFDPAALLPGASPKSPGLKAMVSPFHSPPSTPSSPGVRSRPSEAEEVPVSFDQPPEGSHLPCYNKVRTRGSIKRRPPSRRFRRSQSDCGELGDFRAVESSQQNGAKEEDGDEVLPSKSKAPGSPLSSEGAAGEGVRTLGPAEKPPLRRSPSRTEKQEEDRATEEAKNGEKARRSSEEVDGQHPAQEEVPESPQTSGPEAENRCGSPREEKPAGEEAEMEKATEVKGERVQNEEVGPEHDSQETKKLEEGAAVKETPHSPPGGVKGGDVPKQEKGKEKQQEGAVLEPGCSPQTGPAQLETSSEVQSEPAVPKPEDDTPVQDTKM
UniProt P10586, whole entry: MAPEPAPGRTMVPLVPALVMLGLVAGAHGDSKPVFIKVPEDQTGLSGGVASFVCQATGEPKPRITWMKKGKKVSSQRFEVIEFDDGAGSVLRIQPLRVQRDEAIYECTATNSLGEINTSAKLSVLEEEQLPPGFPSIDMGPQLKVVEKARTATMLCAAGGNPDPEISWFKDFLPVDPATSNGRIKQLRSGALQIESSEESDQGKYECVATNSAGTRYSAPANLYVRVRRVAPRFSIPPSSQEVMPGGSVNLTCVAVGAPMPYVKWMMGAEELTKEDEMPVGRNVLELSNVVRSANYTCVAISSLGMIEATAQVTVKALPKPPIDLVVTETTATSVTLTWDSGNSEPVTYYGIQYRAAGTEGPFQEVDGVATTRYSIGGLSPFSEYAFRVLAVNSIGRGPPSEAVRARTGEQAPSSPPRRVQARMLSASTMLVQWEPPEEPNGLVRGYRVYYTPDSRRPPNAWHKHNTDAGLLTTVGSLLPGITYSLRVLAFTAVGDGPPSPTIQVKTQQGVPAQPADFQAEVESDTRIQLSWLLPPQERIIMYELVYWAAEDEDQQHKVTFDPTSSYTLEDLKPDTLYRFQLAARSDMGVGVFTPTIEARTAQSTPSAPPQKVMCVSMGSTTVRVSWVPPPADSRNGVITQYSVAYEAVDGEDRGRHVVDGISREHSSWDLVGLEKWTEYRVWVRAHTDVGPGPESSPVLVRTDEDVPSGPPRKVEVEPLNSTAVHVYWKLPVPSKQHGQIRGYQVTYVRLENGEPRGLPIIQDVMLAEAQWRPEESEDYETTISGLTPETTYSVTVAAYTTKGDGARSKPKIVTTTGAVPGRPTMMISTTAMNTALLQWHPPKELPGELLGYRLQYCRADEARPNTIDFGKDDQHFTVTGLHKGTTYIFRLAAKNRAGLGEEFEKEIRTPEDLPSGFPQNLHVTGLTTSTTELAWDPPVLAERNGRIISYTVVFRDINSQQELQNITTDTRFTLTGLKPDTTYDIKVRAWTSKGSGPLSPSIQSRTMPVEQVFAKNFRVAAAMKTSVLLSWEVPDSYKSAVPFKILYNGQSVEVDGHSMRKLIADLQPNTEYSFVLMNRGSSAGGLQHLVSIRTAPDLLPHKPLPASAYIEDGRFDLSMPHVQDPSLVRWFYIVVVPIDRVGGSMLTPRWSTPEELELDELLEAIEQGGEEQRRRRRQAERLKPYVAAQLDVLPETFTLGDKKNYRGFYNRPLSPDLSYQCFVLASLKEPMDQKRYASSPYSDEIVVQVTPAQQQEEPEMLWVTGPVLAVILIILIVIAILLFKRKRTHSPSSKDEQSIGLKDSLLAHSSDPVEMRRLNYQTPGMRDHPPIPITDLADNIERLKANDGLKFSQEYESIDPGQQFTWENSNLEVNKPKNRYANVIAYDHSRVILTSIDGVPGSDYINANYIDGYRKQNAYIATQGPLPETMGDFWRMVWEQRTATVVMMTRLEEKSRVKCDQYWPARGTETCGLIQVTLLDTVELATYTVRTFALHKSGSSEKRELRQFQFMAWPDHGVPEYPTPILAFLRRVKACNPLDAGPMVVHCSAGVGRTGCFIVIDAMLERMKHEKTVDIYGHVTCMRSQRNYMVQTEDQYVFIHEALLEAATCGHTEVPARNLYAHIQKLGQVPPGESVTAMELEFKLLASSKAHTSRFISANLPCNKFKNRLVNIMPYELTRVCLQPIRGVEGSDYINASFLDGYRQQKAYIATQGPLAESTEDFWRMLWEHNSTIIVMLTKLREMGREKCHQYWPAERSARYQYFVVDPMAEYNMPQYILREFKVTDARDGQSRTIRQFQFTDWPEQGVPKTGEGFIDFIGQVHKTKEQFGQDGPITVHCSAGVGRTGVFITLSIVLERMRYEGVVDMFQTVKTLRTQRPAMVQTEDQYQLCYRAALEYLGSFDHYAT

Some of the results follow.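 The calls were made as follows: active = dose-dependent thermal stabilisation significant by F-test of dose-response against flat model at 10% FDR; inactive = not significant.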

Compound in the assay: Nc1nc2c(ncn2[C@@H]2O[C@H](COP(=O)(O)OP(=O)(O)OP(=O)(O)O)[C@@H](O)[C@H]2O)c(=O)[nH]1
In words: dose-dependent thermal stabilisation call (2D-TPP, DLPTP, 10% FDR) (binary (1 = stabilised)); higher = stabilised by the compound. The conditions noted are these: system: Jurkat gel-filtered lysate; concentration range 1-500 µM.
For PSMA3 (UniProt P25788), the “dose-dependent thermal stabilisation call” value is inactive: 0. The figure for RBMS1 (UniProt P29558) is active: 1; for PTPRS (UniProt Q13332) it is inactive: 0; for PTGR2 (UniProt Q8N8N7) it is inactive: 0.

Regarding PUM2 (UniProt Q8TB72), the “dose-dependent thermal stabilisation call” value was inactive: 0. As for PRKRIP1 (UniProt Q9H875), the “dose-dependent thermal stabilisation call” value is inactive: 0.

Regarding PRPF19 (UniProt Q9UMS4), the “dose-dependent thermal stabilisation call” value is inactive: 0. The figure for RCN2 (UniProt Q14257) is inactive: 0. With RABEP2 (UniProt Q9H5N1) the figure was inactive: 0; with RAB14 (UniProt P61106), active: 1.

With RAB6A (UniProt P20340), the “dose-dependent thermal stabilisation call” value is active: 1. The figure for RAD23A (UniProt P54725) is inactive: 0; for RAP1B (UniProt P61224) it is active: 1; for PTK7 (UniProt Q13308) it is inactive: 0. In the case of PRRC2C (UniProt Q9Y520), the “dose-dependent thermal stabilisation call” value is inactive: 0.

Consider PSMB2 (UniProt P49721), for which the “dose-dependent thermal stabilisation call” value was inactive: 0. The figure for RAD1 (UniProt O60671) is inactive: 0.

Turning to PSMC5 (UniProt P62195), the “dose-dependent thermal stabilisation call” value was inactive: 0. With PSME4 (UniProt Q14997) the figure was inactive: 0; with PSME3 (UniProt P61289), inactive: 0; with R3HDM2 (UniProt Q9Y2K5), inactive: 0. On to RBM25 (UniProt P49756), for which the “dose-dependent thermal stabilisation call” value was inactive: 0. With RCSD1 (UniProt Q6JBY9) the figure was inactive: 0; with PTPRF (UniProt P10586), inactive: 0; with PSMD11 (UniProt O00231), inactive: 0. The figure for R3HCC1 (UniProt Q9Y3T6) is inactive: 0; for R3HCC1L (UniProt Q7Z5L2) it is inactive: 0. The figure for RAD18 (UniProt Q9NS91) is active: 1; for RBM42 (UniProt Q9BTD8) it is inactive: 0. As to PSMG3 (UniProt Q9BT73), the “dose-dependent thermal stabilisation call” value was inactive: 0. For the target RBM48 (UniProt Q5RL73), the “dose-dependent thermal stabilisation call” value is inactive: 0. With RABGAP1 (UniProt Q9Y3P9) the figure was inactive: 0. With RANBP3 (UniProt Q9H6Z4) the figure was inactive: 0; with PURB (UniProt Q96QR8), inactive: 0; with RBM5 (UniProt P52756), inactive: 0. The figure for RAB18 (UniProt Q9NP72) is active: 1.
